The results in this text go back to the supplement of paper PMC7666118.

The chains behind the UniProt entries cited, without tags or fusion partners. Where a name states a change or a piece, a line headed by the entry shows the natural chain unless it says otherwise.
UniProt Q9Y5L4: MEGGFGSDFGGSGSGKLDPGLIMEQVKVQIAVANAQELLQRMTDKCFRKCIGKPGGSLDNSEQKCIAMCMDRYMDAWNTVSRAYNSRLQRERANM
UniProt Q9H3S4: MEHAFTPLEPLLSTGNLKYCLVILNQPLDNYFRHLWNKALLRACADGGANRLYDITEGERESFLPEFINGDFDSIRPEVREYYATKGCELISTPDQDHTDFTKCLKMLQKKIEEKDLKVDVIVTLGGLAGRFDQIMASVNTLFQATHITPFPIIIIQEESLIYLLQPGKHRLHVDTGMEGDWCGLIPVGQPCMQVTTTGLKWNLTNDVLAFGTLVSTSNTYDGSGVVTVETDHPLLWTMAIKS
UniProt Q66K14, whole entry: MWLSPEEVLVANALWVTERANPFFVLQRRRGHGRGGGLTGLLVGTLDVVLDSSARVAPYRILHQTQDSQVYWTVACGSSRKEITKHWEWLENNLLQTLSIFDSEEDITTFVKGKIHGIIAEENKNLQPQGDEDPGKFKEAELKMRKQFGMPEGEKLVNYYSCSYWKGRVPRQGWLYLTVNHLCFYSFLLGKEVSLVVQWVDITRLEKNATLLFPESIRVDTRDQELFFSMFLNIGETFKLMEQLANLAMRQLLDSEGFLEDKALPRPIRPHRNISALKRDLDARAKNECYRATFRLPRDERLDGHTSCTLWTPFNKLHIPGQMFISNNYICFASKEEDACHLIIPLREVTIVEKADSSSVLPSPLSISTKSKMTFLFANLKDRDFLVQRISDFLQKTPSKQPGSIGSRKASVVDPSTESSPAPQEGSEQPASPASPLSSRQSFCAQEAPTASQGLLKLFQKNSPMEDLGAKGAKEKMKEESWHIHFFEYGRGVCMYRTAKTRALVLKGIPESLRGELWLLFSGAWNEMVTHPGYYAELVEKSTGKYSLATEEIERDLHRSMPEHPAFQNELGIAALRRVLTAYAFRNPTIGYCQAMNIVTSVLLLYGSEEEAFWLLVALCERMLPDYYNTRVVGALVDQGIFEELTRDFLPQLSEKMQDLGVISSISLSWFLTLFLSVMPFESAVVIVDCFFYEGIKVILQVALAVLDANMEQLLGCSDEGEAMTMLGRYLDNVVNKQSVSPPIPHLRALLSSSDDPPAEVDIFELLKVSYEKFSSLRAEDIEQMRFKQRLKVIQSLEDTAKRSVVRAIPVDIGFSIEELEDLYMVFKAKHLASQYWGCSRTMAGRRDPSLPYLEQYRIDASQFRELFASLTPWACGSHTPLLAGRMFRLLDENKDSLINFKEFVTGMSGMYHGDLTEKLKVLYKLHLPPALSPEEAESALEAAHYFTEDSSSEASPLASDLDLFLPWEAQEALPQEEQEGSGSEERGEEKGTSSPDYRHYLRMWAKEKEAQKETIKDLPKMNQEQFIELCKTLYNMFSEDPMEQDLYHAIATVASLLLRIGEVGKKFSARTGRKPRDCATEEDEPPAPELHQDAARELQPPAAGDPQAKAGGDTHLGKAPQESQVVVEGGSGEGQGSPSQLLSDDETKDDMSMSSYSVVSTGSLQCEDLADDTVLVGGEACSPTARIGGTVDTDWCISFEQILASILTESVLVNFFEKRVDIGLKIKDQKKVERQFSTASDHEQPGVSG
UniProt Q15633: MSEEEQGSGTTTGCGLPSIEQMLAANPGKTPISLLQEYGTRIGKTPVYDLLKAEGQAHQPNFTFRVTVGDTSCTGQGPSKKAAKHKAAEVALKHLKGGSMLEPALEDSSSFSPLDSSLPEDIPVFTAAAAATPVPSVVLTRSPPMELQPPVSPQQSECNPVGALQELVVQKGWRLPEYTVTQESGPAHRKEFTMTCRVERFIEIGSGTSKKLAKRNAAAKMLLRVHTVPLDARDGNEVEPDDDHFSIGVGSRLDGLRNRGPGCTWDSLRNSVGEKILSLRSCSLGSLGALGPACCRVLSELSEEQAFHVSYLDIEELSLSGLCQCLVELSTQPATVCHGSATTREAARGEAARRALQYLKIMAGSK
UniProt Q8IUX1: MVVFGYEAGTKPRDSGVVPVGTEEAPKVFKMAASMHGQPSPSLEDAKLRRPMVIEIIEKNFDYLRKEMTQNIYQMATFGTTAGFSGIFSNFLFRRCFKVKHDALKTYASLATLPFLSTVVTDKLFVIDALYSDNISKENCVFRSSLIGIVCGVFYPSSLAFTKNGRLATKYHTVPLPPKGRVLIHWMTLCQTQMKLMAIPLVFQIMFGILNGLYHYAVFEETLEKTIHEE
UniProt Q9BQ70: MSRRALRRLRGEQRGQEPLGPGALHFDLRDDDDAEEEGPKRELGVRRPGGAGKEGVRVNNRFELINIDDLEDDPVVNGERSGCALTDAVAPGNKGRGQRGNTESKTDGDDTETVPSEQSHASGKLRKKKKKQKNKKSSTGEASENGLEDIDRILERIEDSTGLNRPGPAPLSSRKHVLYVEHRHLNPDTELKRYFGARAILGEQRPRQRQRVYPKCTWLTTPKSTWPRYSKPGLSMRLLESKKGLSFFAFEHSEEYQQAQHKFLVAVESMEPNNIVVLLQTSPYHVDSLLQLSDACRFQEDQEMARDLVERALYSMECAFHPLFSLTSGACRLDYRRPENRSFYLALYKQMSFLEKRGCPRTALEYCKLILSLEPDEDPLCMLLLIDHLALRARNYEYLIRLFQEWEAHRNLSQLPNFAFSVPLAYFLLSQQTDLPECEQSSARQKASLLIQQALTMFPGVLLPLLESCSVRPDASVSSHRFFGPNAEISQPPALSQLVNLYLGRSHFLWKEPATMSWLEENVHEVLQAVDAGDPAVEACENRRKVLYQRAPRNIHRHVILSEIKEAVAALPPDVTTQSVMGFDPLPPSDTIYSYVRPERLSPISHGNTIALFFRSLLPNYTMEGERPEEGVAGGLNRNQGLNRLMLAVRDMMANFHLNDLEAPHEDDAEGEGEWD
UniProt Q8NDZ6: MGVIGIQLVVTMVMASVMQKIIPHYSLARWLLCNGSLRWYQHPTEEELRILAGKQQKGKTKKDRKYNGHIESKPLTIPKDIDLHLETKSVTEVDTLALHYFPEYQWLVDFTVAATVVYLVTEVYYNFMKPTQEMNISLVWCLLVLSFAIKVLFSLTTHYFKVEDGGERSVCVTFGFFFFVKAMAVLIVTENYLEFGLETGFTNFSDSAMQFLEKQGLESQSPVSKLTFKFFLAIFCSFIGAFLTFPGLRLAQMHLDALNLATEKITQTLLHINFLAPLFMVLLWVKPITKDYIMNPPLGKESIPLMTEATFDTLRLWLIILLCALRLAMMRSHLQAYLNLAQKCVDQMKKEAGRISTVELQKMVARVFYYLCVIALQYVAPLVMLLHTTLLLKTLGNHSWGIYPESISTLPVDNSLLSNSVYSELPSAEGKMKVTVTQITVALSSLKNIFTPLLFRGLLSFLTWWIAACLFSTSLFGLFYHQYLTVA
UniProt Q9Y584: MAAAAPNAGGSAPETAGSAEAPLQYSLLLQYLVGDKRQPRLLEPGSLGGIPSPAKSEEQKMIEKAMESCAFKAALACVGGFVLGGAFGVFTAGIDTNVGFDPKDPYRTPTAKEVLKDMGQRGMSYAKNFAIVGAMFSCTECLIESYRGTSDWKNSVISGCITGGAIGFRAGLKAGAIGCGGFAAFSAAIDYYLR
UniProt Q12888: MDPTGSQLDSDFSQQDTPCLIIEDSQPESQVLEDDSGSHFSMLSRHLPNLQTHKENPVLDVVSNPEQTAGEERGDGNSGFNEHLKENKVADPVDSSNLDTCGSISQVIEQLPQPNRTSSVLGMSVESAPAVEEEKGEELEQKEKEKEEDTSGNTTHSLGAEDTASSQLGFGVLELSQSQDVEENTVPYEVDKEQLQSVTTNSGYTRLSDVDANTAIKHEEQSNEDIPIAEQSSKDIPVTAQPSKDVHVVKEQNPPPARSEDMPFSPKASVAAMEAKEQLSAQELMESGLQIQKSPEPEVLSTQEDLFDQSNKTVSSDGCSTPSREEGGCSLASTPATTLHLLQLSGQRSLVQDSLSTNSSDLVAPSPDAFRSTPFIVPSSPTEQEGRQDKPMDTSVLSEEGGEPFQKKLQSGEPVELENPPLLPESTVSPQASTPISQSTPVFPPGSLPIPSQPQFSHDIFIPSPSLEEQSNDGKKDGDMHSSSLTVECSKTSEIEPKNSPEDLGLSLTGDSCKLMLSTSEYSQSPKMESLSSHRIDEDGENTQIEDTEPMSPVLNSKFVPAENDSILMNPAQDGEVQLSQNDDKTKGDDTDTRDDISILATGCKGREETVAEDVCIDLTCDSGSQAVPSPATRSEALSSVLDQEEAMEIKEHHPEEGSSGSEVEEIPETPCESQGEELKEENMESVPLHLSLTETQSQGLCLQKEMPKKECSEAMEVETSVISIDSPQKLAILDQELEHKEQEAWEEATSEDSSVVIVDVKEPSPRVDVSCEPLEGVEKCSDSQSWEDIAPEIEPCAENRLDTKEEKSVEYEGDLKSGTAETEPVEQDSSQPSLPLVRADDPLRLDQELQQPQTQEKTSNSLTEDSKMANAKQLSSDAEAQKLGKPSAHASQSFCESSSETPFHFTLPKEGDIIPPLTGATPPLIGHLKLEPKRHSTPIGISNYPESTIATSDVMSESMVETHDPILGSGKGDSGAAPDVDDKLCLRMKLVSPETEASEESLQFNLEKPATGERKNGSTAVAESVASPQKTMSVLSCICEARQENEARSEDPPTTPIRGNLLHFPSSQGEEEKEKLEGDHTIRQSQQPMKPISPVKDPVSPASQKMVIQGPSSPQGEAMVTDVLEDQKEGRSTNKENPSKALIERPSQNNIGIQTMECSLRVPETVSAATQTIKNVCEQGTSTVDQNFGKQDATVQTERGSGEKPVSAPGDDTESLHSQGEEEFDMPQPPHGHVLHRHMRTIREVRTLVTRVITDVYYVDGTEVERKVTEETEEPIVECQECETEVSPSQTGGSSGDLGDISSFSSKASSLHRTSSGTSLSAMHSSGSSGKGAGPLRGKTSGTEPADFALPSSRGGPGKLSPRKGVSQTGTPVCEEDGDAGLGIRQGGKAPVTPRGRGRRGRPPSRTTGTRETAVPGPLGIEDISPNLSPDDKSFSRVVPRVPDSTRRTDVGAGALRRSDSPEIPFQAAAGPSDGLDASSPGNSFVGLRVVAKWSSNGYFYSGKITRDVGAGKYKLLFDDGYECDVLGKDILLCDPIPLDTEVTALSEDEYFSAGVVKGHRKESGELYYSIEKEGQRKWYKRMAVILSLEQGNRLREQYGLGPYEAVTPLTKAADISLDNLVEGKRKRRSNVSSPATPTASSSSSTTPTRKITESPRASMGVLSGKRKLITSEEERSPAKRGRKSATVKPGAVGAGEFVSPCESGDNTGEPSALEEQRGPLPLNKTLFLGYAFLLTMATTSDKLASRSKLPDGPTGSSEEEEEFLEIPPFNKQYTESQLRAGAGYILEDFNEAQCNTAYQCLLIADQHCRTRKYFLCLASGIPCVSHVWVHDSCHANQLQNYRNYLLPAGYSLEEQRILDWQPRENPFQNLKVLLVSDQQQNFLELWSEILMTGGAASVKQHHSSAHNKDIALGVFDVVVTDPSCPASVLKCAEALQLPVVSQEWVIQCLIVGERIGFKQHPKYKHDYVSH
UniProt Q9NUJ3: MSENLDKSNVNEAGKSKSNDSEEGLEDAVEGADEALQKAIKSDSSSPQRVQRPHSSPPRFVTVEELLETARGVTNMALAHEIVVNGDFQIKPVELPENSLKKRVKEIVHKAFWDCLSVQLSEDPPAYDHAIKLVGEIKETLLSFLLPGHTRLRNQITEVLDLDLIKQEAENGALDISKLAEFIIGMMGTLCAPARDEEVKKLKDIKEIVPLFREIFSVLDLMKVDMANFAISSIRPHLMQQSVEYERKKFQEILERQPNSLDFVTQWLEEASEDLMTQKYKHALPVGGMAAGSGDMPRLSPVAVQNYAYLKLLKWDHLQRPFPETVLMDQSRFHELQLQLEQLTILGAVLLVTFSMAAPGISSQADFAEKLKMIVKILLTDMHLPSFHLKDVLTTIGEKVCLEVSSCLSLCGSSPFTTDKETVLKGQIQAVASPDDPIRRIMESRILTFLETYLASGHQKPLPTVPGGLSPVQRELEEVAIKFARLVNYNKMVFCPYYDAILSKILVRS

The other results are listed elsewhere or left out.

Compound in this experiment: COc1ccc(Cn2ccc3ccc(C(=O)NO)cc32)cc1
The experiment in a line: dose-dependent thermal stabilisation call (2D-TPP, DLPTP, 10% FDR) (binary (1 = stabilised)); higher = stabilised by the compound. The settings on record: system: HL-60 intact cells; concentration range 0.04-10 µM.
Regarding TIMM13 (UniProt Q9Y5L4), the “dose-dependent thermal stabilisation call” value is inactive: 0.
For TPK1 (UniProt Q9H3S4), the “dose-dependent thermal stabilisation call” value is inactive: 0.
Take TBC1D9B (UniProt Q66K14): the “dose-dependent thermal stabilisation call” value was inactive: 0.
For TARBP2 (UniProt Q15633), the “dose-dependent thermal stabilisation call” value was inactive: 0.
As for TMEM126B (UniProt Q8IUX1), the figure is inactive: 0.
To TCF25 (UniProt Q9BQ70) belongs inactive: 0; to TMEM161B (UniProt Q8NDZ6), inactive: 0; to TIMM22 (UniProt Q9Y584), inactive: 0.
Turning to TP53BP1 (UniProt Q12888), the “dose-dependent thermal stabilisation call” value was inactive: 0.
To TCP11L1 (UniProt Q9NUJ3) belongs inactive: 0.
